Laboratory results taken from PMC5677968, “Familial STAG2 germline mutation defines a new human cohesinopathy” (NPJ Genomic Medicine, 2017).
Results are given in words; binding and its absence hold for the method and conditions named. In cells and extracts the contact can be indirect. A result given as binding can be weak or reduced; the word gives no strength. Sequences can lack the tags named with a protein.

Molecular target: T1, Myc-STAG2 WT (human) (UniProt Q8N3U4)
T1 sequence: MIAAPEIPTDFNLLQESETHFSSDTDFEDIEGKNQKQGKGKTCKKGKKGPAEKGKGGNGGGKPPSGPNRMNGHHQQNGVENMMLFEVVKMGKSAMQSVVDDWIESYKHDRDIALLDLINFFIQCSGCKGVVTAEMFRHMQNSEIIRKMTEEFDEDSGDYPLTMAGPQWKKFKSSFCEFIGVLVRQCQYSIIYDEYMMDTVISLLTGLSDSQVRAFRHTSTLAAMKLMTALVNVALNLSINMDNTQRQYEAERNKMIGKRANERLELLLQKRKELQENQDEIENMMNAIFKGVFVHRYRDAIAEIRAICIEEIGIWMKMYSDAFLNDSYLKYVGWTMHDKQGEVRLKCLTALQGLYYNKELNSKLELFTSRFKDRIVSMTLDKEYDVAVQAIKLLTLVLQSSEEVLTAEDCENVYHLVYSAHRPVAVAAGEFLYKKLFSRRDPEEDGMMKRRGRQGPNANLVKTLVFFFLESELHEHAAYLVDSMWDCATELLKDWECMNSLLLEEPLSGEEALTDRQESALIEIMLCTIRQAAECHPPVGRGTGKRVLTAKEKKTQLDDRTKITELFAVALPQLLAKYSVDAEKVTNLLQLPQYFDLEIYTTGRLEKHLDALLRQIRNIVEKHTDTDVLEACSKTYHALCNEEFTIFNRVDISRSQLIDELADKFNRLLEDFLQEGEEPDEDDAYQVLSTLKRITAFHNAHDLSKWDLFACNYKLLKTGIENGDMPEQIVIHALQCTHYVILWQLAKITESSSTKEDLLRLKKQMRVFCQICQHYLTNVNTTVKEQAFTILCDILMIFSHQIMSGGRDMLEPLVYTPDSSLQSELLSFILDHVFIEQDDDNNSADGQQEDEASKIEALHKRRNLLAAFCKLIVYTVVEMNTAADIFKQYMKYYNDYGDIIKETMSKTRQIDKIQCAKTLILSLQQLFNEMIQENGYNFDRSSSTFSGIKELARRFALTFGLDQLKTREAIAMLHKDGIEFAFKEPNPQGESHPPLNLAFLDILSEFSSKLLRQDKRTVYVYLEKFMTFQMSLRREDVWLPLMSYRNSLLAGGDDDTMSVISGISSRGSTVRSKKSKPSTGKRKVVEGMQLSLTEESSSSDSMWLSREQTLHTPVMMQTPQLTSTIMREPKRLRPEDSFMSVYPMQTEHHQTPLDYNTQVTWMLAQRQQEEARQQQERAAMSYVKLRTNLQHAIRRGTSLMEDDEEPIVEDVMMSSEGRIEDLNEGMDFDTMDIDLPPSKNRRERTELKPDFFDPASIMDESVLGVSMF
Test: co-IP; anti-Myc beads, lysates of HeLa Tet-On cells transfected with Myc-STAG2 WT or mutants; 3 h at 4 °C; washes with lysis buffer containing 200 mM NaCl; blots for endogenous proteins

## endogenous SMC1 (human (endogenous in HeLa))
  binding: binds
